Measurements: the supplement of paper PMC4604168 (melanoma cell lines)
The list shows a part of the results. Many values rest on one well or one pass, so single values are uncertain.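 The apoptosis fraction was the count of cleaved-PARP antibody-stained nuclei relative to all DNA-stained nuclei, imaged in 1,536-well plates. Screening doses were set so most cells survived, and baseline and induced cleaved-PARP levels vary greatly across cell lines.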

How the values were obtained:
Assay in all cases: cleaved PARP positive nuclei fraction relative to DMSO control; melanoma cells; higher = more apoptosis
Details in all cases: library dose: low library concentration; 72 h
[1] = test system: MZ2-MEL
[2] = test system: MeWo
[3] = test system: RPMI7951
[4] = test system: RVH-421
[5] = test system: SkMel28
[6] = test system: SkMel2
[7] = test system: SkMel30
[8] = test system: SkMel5
[9] = test system: UACC257
[10] = test system: UACC62
[11] = test system: WM115
[12] = test system: WM1716
[13] = test system: WM1745
[14] = test system: WM3526
[15] = test system: WM3619
[16] = test system: WM451Lu

Compound	cleaved PARP positive nuclei fraction [1] [%]	cleaved PARP positive nuclei fraction [2] [%]	cleaved PARP positive nuclei fraction [3] [%]	cleaved PARP positive nuclei fraction [4] [%]	cleaved PARP positive nuclei fraction [5] [%]	cleaved PARP positive nuclei fraction [6] [%]	cleaved PARP positive nuclei fraction [7] [%]	cleaved PARP positive nuclei fraction [8] [%]	cleaved PARP positive nuclei fraction [9] [%]	cleaved PARP positive nuclei fraction [10] [%]	cleaved PARP positive nuclei fraction [11] [%]	cleaved PARP positive nuclei fraction [12] [%]	cleaved PARP positive nuclei fraction [13] [%]	cleaved PARP positive nuclei fraction [14] [%]	cleaved PARP positive nuclei fraction [15] [%]	cleaved PARP positive nuclei fraction [16] [%]
Cn1c(=O)n(-c2ccc(C(C)(C)C#N)cc2)c2c3cc(-c4cnc5ccccc5c4)ccc3ncc21 + CN(C)S(=O)(=O)c1ccc2c(c1)/C(=C/c1cc3c([nH]1)CCCC3)C(=O)N2 [SU6656] (first compound 0.004 µM, partner dose 0.4 µM)	118	105	86.6	29.6	110	80.1	67.2	167	134	206	170	33.6	104	120	67.2	55.9
CC(C)C[C@H](NC(=O)[C@H](Cc1ccccc1)NC(=O)c1cnccn1)B(O)O [Bortezomib] + COc1cc2c(Oc3ccc4[nH]c(C)cc4c3F)ncnc2cc1OCCCN1CCCC1 [cediranib] (first compound 0.001 µM, partner dose 0.4 µM)	168	72	198	146	59.1	142	190	63.3	138	268	122	720	144	272	318	48.5
O=C(O)c1ccc2c(c1)nc(Nc1cccc(Cl)c1)c1ccncc12 + COc1cc2c(Oc3ccc4[nH]c(C)cc4c3F)ncnc2cc1OCCCN1CCCC1 [cediranib] (first compound 0.4 µM, partner dose 0.4 µM)	143	111	87.7	77.8	55.1	92.8	83.8	134	109	74	118	125	93.4	36.1	92.5	134
O=C(O)c1ccc2c(c1)nc(Nc1cccc(Cl)c1)c1ccncc12 + NCC(=O)Nc1ccc(-n2nc(C(F)(F)F)cc2-c2ccc3c(ccc4ccccc43)c2)cc1 [OSU03012] (first compound 0.4 µM, partner dose 1 µM)	53.6	84.3	117	167	115	167	212	70.2	286	51.6	71.1	226	95.4	116	121	1600
Cn1c(=O)n(-c2ccc(C(C)(C)C#N)cc2)c2c3cc(-c4cnc5ccccc5c4)ccc3ncc21 + C[C@@H]1CCN(C(=O)CC#N)C[C@@H]1N(C)c1ncnc2[nH]ccc12 [CP690550] (first compound 0.004 µM, partner dose 1 µM)	119	56	38.4	208	82.4	86.6	165	61.4	173	226	16.8	114	102	61.5	208	91.3
CNC(=O)c1cc(Oc2ccc(NC(=O)Nc3ccc(Cl)c(C(F)(F)F)c3)cc2)ccn1 [sorafenib] + CCc1ccc(CCOc2ccc(CC3SC(=O)NC3=O)cc2)nc1 [pioglitazone] (first compound 0.4 µM, partner dose 2 µM)	103	83.3	73.7	99.1	108	79.3	159	74.5	83.5	117	15.5	47.8	92.7	225	78.6	79.8
CS(=O)(=O)CCNCc1ccc(-c2ccc3ncnc(Nc4ccc(OCc5cccc(F)c5)c(Cl)c4)c3c2)o1 [lapatinib] + Cc1ccc(NC(=O)c2cccc(N(C)C)c2)cc1NC(=O)c1ccc(O)cc1 [ZM336372] (first compound 0.8 µM, partner dose 2 µM)	170	24.2	158	36.4	172	100	88.3	218	191	52.7	65.6	108	101	56.5	103	105
O=C(O)c1ccc2c(c1)nc(Nc1cccc(Cl)c1)c1ccncc12 + CCc1ccc(CCOc2ccc(CC3SC(=O)NC3=O)cc2)nc1 [pioglitazone] (first compound 0.4 µM, partner dose 2 µM)	95.3	60.4	86.9	83.9	107	54.2	204	76.4	191	74.5	89.6	176	88.4	85.8	94.7	75.2
Cc1cc(Nc2cc(N3CCN(C)CC3)nc(/C=C/c3ccccc3)n2)n[nH]1 + Cc1cc(N2CCOCC2)cc2[nH]c(-c3c(NC[C@@H](O)c4cccc(Cl)c4)cc[nH]c3=O)nc12 [BMS536924] (first compound 0.04 µM, partner dose 0.2 µM)	115	113	51	89.9	132	61.9	72	57.3	56.7	320	164	145	149	31.7	97.6	102

Single records, from the list above. Order of values: cleaved PARP positive nuclei fraction [1] [%] | cleaved PARP positive nuclei fraction [2] [%] | cleaved PARP positive nuclei fraction [3] [%] | cleaved PARP positive nuclei fraction [4] [%] | cleaved PARP positive nuclei fraction [5] [%] | cleaved PARP positive nuclei fraction [6] [%] | cleaved PARP positive nuclei fraction [7] [%] | cleaved PARP positive nuclei fraction [8] [%] | cleaved PARP positive nuclei fraction [9] [%] | cleaved PARP positive nuclei fraction [10] [%] | cleaved PARP positive nuclei fraction [11] [%] | cleaved PARP positive nuclei fraction [12] [%] | cleaved PARP positive nuclei fraction [13] [%] | cleaved PARP positive nuclei fraction [14] [%] | cleaved PARP positive nuclei fraction [15] [%] | cleaved PARP positive nuclei fraction [16] [%]
CS(=O)(=O)CCNCc1ccc(-c2ccc3ncnc(Nc4ccc(OCc5cccc(F)c5)c(Cl)c4)c3c2)o1 [lapatinib] + Cc1ccc(NC(=O)c2cccc(N(C)C)c2)cc1NC(=O)c1ccc(O)cc1 [ZM336372] (first compound 0.8 µM, partner dose 2 µM) as listed: 170 | 24.2 | 158 | 36.4 | 172 | 100 | 88.3 | 218 | 191 | 52.7 | 65.6 | 108 | 101 | 56.5 | 103 | 105
CC(C)C[C@H](NC(=O)[C@H](Cc1ccccc1)NC(=O)c1cnccn1)B(O)O [Bortezomib] + COc1cc2c(Oc3ccc4[nH]c(C)cc4c3F)ncnc2cc1OCCCN1CCCC1 [cediranib] (first compound 0.001 µM, partner dose 0.4 µM) as listed: 168 | 72 | 198 | 146 | 59.1 | 142 | 190 | 63.3 | 138 | 268 | 122 | 720 | 144 | 272 | 318 | 48.5
